# Percent effect of library compounds

The chains behind the UniProt entries cited, without tags or fusion partners.
UniProt P9WPC5, whole entry: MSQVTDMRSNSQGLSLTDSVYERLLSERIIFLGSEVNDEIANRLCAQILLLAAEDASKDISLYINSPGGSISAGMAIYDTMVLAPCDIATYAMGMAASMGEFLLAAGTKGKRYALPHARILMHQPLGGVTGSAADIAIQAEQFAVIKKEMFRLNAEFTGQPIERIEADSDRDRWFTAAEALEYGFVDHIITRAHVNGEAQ
UniProt P9WPC3, whole entry partner: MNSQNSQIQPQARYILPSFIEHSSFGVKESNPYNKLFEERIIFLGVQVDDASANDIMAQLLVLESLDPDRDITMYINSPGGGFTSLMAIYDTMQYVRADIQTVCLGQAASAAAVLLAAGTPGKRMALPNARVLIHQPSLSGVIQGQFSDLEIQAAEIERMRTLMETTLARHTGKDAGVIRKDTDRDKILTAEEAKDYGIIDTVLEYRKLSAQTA
UniProt I6X8D2, whole entry: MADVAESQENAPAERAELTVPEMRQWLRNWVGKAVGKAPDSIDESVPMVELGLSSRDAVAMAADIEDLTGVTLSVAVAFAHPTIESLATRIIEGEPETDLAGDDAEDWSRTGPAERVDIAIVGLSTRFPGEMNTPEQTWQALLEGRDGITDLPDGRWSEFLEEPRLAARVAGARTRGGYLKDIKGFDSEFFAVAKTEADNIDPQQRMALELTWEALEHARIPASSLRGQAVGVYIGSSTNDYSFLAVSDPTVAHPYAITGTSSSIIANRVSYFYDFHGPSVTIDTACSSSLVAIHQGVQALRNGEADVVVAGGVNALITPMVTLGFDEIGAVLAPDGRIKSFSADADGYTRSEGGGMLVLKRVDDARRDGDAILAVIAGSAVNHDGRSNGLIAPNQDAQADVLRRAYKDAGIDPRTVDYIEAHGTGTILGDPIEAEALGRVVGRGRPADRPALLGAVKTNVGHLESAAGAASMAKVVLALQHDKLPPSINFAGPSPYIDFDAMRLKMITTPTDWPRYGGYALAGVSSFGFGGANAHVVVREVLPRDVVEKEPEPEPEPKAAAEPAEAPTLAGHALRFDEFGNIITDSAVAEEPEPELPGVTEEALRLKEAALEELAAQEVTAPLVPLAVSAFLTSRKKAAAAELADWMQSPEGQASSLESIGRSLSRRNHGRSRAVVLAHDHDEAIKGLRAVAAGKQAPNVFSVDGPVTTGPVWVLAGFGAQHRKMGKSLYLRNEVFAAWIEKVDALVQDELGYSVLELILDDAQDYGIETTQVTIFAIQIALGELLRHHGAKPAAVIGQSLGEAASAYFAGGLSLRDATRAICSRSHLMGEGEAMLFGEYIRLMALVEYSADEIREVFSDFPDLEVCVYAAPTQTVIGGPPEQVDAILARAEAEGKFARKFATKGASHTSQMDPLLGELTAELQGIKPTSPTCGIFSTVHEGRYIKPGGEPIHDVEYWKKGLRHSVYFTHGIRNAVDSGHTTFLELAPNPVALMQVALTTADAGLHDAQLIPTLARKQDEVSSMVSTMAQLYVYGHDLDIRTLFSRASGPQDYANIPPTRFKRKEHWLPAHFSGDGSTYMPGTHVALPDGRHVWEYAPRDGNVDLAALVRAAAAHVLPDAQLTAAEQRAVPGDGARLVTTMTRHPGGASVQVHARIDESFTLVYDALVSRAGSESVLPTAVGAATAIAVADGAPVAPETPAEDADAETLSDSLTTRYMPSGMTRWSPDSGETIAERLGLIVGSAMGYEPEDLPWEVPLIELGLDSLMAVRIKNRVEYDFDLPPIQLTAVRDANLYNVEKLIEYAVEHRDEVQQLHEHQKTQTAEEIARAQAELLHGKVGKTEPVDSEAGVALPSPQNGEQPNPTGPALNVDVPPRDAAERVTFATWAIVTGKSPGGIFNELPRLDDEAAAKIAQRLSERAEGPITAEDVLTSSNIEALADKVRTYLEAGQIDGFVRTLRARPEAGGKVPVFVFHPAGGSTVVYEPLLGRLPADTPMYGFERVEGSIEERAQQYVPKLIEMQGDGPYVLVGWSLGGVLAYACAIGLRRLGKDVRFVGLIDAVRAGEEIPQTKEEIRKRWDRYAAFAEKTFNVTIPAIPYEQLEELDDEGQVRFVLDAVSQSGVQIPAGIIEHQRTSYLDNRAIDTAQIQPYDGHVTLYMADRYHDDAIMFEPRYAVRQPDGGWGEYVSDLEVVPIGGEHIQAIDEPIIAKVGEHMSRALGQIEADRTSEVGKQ

Measurements from “University of Dundee, Small-Polar-MMV Screening Library” (2021), ChEMBL document CHEMBL3988442.

Values are the deposited “Percent Effect”, in %. The record does not define 0% and 100%; most values in the screen are far below 50% and negative numbers occur (in some assays of this library far below -100). Compounds were drawn at random from those tested, without regard to their results.

ClpP1P2: 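Protease assay of ClpP1P2, read by the AMC dye that it sets free. Target: ClpP1P2, Mycobacterium tuberculosis (UniProt P9WPC5 and UniProt P9WPC3). Tested at 50 µM. Higher reads as stronger inhibition, judged from the few compounds that gave an IC50. Most other retested compounds had strongly negative values. Of about 69,000 compounds tested this way, about 10 (0.015%) reached 50% or more in at least one test.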
Pks13 thioesterase: 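Enzyme assay of the thioesterase domain of polyketide synthase 13; the read-out is not stated. Target: Polyketide synthase Pks13, Mycobacterium tuberculosis (UniProt I6X8D2). Concentration: 30 µM. Higher reads as stronger inhibition (inferred from which compounds were picked for retests). About 67,000 compounds were tested under these conditions; 0.46% (about 300) showed 50% or more at least once.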

For Cc1c[nH]c(CN(C)c2nc(C3CCCC3)nc3c2cnn3C)n1 the result was ClpP1P2: -12.22%; Pks13 thioesterase: -5.86%.
For COc1cccc2c(C)c(C(=O)N3CCNCC3C(N)=O)[nH]c12 (configuration not stated) the result was ClpP1P2: -11.19%; Pks13 thioesterase: 11.03%.
For CNc1cncc(C2CCN(C(=O)c3coc(C)n3)CC2)n1 the result was ClpP1P2: -138.6%; Pks13 thioesterase: 14.75%.
For CCNC(=O)NC(=O)CNC1(c2noc(C)n2)CCCCC1 the result was ClpP1P2: -1.96%; Pks13 thioesterase: -12.52%.
For CN1Cc2[nH]nc(COCC3CC3)c2C1 the result was ClpP1P2: 2.199%; Pks13 thioesterase: -29.95%.
For Cc1cc2c(cc1C)OC1(C=C2)CCN(CC(=O)N2CCOCC2)CC1 the result was ClpP1P2: -23.14%; Pks13 thioesterase: 4.698%.
For Cc1nc(C)n(CC2CCCN(Cc3cccc(F)c3F)C2)n1 (configuration not stated) the result was ClpP1P2: -11.87%; Pks13 thioesterase: 0.1532%.
For CCc1nn(C)c(Cl)c1CN1CCC(c2cc(O)nc(C)n2)CC1 the result was ClpP1P2: -13.33%; Pks13 thioesterase: -35.92%.
For CCN1CCN(C(=O)c2csnn2)c2ccccc21 the result was ClpP1P2: -3.289%; Pks13 thioesterase: 2.018%.
For CC1CCN(c2ncc3c(n2)CN(c2ccc4c(c2)OCO4)C3=O)CC1 the result was ClpP1P2: 3.672%; Pks13 thioesterase: -6.922%.
For Cc1cc(C)n(CC2CCCN2C(=O)c2ccc(C(N)=O)cn2)n1 (configuration not stated) the result was ClpP1P2: -0.1075%; Pks13 thioesterase: -12.27%.
For CCN(Cc1noc(CC(C)C)n1)Cc1ccccc1Cl the result was ClpP1P2: -8.717%; Pks13 thioesterase: -18.26%.
For CCCn1cc(-c2cc(-c3cc(CC)n[nH]3)c(C#N)c(N)n2)c(C)n1 the result was ClpP1P2: -197.3%; Pks13 thioesterase: 21.67%.
For NC(=O)c1cccc2nc([C@H]3CCN(Cc4ccccn4)C3)[nH]c12 the result was ClpP1P2: -13.11%; Pks13 thioesterase: -34.47%.
For Cn1cc(CN2CCCC(CCc3c(F)cccc3F)C2)cn1 (configuration not stated) the result was ClpP1P2: -6.401%; Pks13 thioesterase: 39.44%.
For O=C(O)c1ccnc(-c2ccnc(N3CCCCCC3)n2)c1 the result was ClpP1P2: -0.4384%; Pks13 thioesterase: -8.591%.
For Cc1nc(C)n(CC2CCCCN2Cc2cscn2)n1 (configuration not stated) the result was ClpP1P2: 0.9346%; Pks13 thioesterase: -3.623%.
For COc1cc2c(cc1CNC(Cc1cccs1)c1nccs1)OCO2 (configuration not stated) the result was ClpP1P2: 3.947%; Pks13 thioesterase: -5.571%.
For Cc1nc(COc2ccc(CNCC3CN(C)CCO3)cc2)cs1 (configuration not stated) the result was ClpP1P2: 4.484%; Pks13 thioesterase: -14.87%.
For O=C1COC2(CCN(c3cccc(F)c3)CC2)CN1Cc1ccccn1 the result was ClpP1P2: -11.67%; Pks13 thioesterase: -7.407%.
For N#CC1(NC(=O)COc2cc(Cl)cc(Cl)c2)CCSC1 (configuration not stated) the result was ClpP1P2: -0.6192%; Pks13 thioesterase: -10.83%.
For O=C(O)[C@@H]1CN(C(=O)CSCC2CC2)C[C@H]1c1ccncc1 the result was ClpP1P2: -1.37%; Pks13 thioesterase: -19.27%.
For Cc1cccc(CN2CCCC2c2cncc(Nc3nncs3)n2)c1 (configuration not stated) the result was ClpP1P2: -10.81%; Pks13 thioesterase: -0.502%.
For CC(C)CN(Cc1ccc(-n2cncn2)cc1)Cc1ccccn1 the result was ClpP1P2: -5.074%; Pks13 thioesterase: -43.03%.
For CC(c1cccc(-c2nccn2CCc2ccccn2)c1)N(C)C (configuration not stated) the result was ClpP1P2: -1.35%; Pks13 thioesterase: -36.49%.
For CCc1n[nH]c(C2CN(C(=O)c3cc(C4CC4)on3)CCO2)n1 (configuration not stated) the result was ClpP1P2: -11.21%; Pks13 thioesterase: -10.9%.
For Cn1nc2c(c1NC(=O)c1cccs1)CCC2 the result was ClpP1P2: -4.677%.
For CCN(CC)S(=O)(=O)CCNC(=O)N(C)C(C)c1ccccn1 (configuration not stated) the result was ClpP1P2: -1.9%; Pks13 thioesterase: -32.64%.
For Nc1nc2c(c(NCc3nc(-c4ccncc4)n[nH]3)n1)CCCC2 the result was ClpP1P2: -1.027%; Pks13 thioesterase: -37.31%.
For CC(=O)c1cccc(NC(=O)c2cnc(N3CCN(C)CC3)nc2C)c1 the result was ClpP1P2: -10.13%; Pks13 thioesterase: -19.08%.
For CNc1nc(CNC(=O)Nc2cccc(CN(C)C)c2)cs1 the result was ClpP1P2: -21.53%; Pks13 thioesterase: -12.86%.